# From patent US20040038212A1
# By UniProt entry, the sequences of proteins in these tests, tags left out. Where a name states a change or a piece, a line headed by the entry shows the natural chain unless it says otherwise.
# UniProt Q9UQF2: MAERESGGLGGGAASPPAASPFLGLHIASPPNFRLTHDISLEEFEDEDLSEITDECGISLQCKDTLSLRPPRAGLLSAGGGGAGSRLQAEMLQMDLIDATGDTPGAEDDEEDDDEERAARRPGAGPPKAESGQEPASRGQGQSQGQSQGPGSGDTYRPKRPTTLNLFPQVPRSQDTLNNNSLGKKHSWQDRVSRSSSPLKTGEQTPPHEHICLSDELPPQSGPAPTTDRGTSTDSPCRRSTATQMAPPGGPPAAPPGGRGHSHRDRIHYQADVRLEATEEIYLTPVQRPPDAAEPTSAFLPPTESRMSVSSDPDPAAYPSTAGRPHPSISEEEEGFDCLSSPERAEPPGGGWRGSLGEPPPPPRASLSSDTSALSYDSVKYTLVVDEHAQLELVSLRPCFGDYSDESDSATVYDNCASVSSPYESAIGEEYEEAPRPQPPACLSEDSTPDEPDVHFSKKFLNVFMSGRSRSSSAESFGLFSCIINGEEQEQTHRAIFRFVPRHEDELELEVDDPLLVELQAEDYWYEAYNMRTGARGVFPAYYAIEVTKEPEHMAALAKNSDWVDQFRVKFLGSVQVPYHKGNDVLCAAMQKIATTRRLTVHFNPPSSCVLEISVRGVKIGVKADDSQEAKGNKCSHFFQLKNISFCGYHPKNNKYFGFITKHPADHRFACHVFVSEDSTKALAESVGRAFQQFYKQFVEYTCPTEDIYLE
# UniProt P46100: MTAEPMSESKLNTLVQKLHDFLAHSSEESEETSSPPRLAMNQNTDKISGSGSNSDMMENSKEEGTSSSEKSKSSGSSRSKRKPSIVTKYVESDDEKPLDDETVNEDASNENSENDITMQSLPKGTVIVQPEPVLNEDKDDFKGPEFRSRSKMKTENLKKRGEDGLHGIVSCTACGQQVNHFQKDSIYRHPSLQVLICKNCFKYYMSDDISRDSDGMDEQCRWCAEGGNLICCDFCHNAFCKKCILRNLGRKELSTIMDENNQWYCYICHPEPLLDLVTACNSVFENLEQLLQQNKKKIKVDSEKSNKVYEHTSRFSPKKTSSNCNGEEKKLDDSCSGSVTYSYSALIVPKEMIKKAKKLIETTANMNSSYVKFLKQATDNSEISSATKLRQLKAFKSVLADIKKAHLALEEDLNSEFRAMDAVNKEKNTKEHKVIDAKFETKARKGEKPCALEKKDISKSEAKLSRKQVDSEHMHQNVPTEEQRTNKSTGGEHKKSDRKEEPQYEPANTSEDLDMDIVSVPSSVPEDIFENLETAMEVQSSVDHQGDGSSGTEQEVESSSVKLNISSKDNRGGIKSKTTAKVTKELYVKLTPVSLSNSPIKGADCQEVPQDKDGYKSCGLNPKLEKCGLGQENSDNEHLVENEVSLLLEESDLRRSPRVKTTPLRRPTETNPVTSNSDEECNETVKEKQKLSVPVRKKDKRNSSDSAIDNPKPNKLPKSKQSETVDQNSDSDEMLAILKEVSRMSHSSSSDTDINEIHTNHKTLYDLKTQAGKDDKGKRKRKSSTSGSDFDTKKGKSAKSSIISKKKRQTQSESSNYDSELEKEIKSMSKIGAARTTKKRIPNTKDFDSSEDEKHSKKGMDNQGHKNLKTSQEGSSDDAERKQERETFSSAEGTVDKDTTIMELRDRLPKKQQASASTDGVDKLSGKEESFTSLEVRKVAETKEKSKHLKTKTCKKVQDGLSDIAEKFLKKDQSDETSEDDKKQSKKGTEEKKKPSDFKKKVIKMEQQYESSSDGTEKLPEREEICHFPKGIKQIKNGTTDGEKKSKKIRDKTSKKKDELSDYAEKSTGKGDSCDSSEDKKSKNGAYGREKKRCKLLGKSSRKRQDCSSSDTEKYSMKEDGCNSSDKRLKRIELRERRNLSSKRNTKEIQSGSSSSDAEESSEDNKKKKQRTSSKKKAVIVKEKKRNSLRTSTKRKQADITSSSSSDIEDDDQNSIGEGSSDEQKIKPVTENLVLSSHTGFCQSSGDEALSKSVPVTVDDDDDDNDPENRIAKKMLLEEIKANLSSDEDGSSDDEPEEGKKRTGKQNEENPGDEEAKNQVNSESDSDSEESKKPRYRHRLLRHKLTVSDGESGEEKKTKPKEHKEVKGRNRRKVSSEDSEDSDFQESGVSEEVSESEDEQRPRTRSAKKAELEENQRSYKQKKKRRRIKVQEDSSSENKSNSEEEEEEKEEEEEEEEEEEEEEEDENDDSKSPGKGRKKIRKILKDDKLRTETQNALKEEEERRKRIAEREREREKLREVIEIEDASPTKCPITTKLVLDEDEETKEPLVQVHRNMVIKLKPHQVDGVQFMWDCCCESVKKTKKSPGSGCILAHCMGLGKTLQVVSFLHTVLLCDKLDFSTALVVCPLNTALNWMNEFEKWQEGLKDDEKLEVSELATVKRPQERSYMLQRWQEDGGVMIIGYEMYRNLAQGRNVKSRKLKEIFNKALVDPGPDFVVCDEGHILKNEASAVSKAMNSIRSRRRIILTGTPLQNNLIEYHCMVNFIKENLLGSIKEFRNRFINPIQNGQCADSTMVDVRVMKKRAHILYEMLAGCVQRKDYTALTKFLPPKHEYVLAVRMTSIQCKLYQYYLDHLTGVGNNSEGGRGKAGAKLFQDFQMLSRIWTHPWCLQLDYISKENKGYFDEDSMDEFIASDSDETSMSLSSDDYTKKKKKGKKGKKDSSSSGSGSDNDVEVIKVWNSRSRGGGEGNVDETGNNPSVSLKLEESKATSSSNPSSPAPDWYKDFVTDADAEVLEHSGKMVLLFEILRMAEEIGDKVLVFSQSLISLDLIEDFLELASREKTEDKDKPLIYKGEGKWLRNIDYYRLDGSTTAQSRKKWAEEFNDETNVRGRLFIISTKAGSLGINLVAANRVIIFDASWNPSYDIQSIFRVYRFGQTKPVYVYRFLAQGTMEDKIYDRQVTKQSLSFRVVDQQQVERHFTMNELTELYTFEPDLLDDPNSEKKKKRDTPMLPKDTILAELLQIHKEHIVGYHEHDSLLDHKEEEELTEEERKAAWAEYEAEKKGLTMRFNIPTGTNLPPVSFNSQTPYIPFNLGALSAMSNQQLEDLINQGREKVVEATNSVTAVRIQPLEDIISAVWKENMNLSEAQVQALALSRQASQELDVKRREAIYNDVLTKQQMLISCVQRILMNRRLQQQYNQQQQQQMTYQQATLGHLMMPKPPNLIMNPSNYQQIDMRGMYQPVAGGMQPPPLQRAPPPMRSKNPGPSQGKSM
# UniProt Q13123: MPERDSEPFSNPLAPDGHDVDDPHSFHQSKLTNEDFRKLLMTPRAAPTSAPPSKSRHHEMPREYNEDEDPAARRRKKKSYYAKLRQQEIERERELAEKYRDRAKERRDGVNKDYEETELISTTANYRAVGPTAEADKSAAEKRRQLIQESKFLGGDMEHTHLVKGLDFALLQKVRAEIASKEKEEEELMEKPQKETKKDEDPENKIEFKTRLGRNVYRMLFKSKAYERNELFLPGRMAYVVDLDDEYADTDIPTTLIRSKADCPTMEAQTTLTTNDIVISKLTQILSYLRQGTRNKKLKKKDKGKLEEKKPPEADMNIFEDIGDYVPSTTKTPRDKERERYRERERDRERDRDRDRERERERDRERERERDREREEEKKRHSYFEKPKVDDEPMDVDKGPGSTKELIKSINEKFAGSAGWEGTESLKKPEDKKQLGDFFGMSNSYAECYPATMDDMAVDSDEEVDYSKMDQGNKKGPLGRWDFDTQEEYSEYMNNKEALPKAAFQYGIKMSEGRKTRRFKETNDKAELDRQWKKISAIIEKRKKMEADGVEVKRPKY
# UniProt Q96EZ8: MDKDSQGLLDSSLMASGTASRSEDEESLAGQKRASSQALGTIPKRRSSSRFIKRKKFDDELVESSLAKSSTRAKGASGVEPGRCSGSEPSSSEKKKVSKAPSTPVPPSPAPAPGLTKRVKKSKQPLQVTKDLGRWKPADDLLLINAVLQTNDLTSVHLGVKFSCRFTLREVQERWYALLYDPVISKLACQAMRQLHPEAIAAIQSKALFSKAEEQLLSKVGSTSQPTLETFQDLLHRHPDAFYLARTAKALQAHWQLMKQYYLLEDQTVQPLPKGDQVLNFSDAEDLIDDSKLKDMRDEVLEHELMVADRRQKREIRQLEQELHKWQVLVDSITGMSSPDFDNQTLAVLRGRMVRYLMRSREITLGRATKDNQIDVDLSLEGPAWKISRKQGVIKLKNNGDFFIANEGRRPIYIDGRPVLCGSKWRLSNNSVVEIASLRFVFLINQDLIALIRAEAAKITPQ
# UniProt O75820: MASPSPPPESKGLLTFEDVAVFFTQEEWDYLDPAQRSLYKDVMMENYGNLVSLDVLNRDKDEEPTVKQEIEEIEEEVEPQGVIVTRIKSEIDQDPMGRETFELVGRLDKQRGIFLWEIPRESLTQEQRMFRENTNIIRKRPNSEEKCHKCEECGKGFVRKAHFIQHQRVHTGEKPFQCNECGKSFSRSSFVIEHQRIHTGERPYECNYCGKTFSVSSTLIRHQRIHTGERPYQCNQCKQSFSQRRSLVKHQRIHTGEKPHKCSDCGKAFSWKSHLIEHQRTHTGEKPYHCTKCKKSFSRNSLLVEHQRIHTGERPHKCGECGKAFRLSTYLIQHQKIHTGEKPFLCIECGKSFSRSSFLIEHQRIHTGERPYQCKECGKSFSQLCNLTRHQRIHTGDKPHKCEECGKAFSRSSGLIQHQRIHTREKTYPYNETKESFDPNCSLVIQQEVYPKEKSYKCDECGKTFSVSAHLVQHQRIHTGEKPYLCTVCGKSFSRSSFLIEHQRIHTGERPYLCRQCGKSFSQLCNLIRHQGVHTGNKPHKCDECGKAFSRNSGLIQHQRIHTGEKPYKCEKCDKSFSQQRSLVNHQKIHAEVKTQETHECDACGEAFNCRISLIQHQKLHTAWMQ
# UniProt P17844: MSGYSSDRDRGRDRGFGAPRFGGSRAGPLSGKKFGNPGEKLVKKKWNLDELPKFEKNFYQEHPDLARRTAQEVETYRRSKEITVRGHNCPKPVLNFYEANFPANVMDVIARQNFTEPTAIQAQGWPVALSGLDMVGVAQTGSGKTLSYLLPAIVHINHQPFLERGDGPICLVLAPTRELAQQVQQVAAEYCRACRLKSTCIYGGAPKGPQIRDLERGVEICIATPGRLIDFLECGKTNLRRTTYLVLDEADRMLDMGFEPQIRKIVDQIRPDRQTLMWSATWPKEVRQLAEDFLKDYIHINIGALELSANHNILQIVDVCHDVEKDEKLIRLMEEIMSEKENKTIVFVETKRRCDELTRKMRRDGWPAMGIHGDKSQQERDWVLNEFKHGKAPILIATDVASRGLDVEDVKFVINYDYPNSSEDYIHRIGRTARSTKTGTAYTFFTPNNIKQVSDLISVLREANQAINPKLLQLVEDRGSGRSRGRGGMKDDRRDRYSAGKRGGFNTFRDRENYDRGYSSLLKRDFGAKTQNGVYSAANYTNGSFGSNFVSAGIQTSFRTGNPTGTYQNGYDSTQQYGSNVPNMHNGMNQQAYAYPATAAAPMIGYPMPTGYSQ
# UniProt O43707: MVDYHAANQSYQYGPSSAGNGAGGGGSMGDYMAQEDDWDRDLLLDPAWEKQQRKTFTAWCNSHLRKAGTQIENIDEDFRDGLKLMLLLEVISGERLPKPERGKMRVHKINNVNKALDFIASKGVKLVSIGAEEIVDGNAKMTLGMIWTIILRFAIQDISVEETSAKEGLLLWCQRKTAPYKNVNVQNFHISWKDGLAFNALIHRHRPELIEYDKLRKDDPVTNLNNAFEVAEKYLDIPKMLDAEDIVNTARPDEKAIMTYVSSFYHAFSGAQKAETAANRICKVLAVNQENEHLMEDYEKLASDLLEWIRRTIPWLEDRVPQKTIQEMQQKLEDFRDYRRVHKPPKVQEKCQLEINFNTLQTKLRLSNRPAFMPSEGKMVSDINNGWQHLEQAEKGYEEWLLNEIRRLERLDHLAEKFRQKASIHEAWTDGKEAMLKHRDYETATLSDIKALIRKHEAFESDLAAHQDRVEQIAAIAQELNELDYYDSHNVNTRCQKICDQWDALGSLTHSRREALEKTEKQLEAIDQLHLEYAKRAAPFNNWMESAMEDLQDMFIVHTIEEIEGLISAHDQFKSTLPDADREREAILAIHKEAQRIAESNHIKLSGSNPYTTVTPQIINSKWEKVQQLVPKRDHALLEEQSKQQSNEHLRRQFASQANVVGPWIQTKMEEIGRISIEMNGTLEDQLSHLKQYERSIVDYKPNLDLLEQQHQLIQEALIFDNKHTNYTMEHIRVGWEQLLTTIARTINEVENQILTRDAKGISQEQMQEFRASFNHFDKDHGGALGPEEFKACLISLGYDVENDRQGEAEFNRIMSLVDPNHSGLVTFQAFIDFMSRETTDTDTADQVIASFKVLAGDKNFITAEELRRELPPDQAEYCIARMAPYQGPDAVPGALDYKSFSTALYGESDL
# No constants are given. Whether binding was seen depends on the method and setting. Some binding calls cover weakened binding; strength is not graded here.
# T1: Gal4-DBD-delta (1-27) ALEX1, bait lacking the N-terminal transmembrane domain (amino acid numbers 1 to 27) (human) (UniProt Q9P291)
# T1 sequence: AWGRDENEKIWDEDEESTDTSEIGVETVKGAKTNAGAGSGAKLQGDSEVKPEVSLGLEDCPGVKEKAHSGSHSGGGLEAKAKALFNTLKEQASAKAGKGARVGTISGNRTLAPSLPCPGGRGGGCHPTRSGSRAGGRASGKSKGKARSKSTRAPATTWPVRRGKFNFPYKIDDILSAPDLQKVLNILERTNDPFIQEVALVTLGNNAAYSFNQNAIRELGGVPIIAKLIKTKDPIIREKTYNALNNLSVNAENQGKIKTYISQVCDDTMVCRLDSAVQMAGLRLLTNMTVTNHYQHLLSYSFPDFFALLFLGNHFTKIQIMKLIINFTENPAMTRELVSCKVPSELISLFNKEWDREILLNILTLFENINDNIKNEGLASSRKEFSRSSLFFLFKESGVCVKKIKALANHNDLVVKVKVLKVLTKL
# B1: SART-1, prey clones from the human brain cDNA library in pACT2 (protein, UniProt O43290 1-800, looked up, not shown: large carriers)
# chain: MGSSKKHRGEKEAAGTTAAAGTGGATEQPPRHREHKKHKHRSGGSGGSGGERRKRSRERGGERGSGRRGAEAEARSSTHGRERSQAEPSERRVKREKRDDGYEAAASSKTSSGDASSLSIEETNKLRAKLGLKPLEVNAIKKEAGTKEEPVTADVINPMALRQREELREKLAAAKEKRLLNQKLGKIKTLGEDDPWLDDTAAWIERSRQLQKEKDLAEKRAKLLEEMDQEFGVSTLVEEEFGQRRQDLYSARDLQGLTVEHAIDSFREGETMILTLKDKGVLQEEEDVLVNVNLVDKERAEKNVELRKKKPDYLPYAEDESVDDLAQQKPRSILSKYDEELEGERPHSFRLEQGGTADGLRERELEEIRAKLRLQAQSLSTVGPRLASEYLTPEEMVTFKKTKRRVKKIRKKEKEVVVRADDLLPLGDQTQDGDFGSRLRGRGRRRVSEVEEEKEPVPQPLPSDDTRVENMDISDEEEGGAPPPGSPQVLEEDEAELELQKQLEKGRRLRQLQQLQQLRDSGEKVVEIVKKLESRQRGWEEDEDPERKGAIVFNATSEFCRTLGEIPTYGLAGNREEQEELMDFERDEERSANGGSESDGEENIGWSTVNLDEEKQQQDFSASSTTILDEEPIVNRGLAAALLLCQNKGLLETTVQKVARVKAPNKSLPSAVYCIEDKMAIDDKYSRREEYRGFTQDFKEKDGYKPDVKIEYVDETGRKLTPKEAFRQLSHRFHGKGSGKMKTERRMKKLDEEALLKKMSSSDTPLGTVALLQEKQKAQKTPYIVLSGSGKSMNANTITK
# B2: KIAA1221, prey clones from the human brain cDNA library in pACT2 (protein, UniProt Q9H582 1-1327, looked up, not shown: large carriers)
# chain: MRSFLQQDVNKTKSRLNVLNGLANNMDDLKINTDITGAKEELLDDNNFISDKESGVHKPKDCQTSFQKNNTLTLPEELSKDKSENALSGGQSSLFIHAGAPTVSSENFILPKGAAVNGPVSHSSLTKTSNMNKGSVSLTTGQPVDQPTTESCSTLKVAADLQLSTPQKASQHQVLFLLSDVAHAKNPTHSNKKLPTSASVGCDIQNSVGSNIKSDGTLINQVEVGEDGEDLLVKDDCVNTVTGISSGTDGFRSENDTNWDPQKEFIQFLMTNEETVDKAPPHSKIGLEKKRKRKMDVSKITRYTEDCFSDSNCVPNKSKMQEVDFLEQNEELQAVDSQKYALSKVKPESTDEDLESVDAFQHLIYNPDKCGEESSPVHTSTFLSNTLKKKCEESDSESPATFSTEEPSFYPCTKCNVNFREKKHLHRHMMYHLDGNSHFRHLNVPRPYACRECGRTFRDRNSLLKHMIIHQERRQKLMEEIRELKELQDEGRSARLQCPQCVFGTNCPKTFVQHAKTHEKDKRYYCCEECNFMAVTENELECHRGIAHGAVVKCPMVTSDIAQRKTQKKTFMKDSVVGSSKKSATYICKMCPFTTSAKSVLKKHTEYLHSSSCVDSFGSPLGLDKRKNDILEEPVDSDSTKTLTKQQSTTFPKNSALKQDVKRTFGSTSQSSSFSKIHKRPHRIQKARKSIAQSGVNMCNQNSSPHKNVTIKSSVDQKPKYFHQAAKEKSNAKANSHYLYRHKYENYRMIKKSGESYPVHFKKEEASSLNSLHLFSSSSNSHNNFISDPHKPDAKRPESFKDHRRVAVKRVIKESKKESSVGGEDLDSYPDFLHKMTVVVLQKLNSAEKKDSYETEDESSWDNVELGDYTTQAIEDETYSDINQEHVNLFPLFKSKVEGQEPGENATLSYDQNDGFYFEYYEDTGSNNFLHEIHDPQHLETADASLSKHSSVFHWTDLSLEKKSCPYCPATFETGVGLSNHVRGHLHRAGLSYEARHVVSPEQIATSDKMQHFKRTGTGTPVKRVRKAIEKSETTSEHTCQLCGGWFDTKIGLSNHVRGHLKRLGKTKWDAHKSPICVLNEMMQNEEKYEKILKALNSRRIIPRPFVAQKLASSDDFISQNVIPLEAYRNGLKTEALSVSASEEEGLNFLNEYDETKPELPSGKKNQSLTLIELLKNKRMGEERNSAISPQKIHNQTARKRFVQKCVLPLNEDSPLMYQPQKMDLTMHSALDCKQKKSRSRSGSKKKMLTLPHGADEVYILRCRFCGLVFRGPLSVQEDWIKHLQRHIVNANLPRTGAGMVEVTSLLKKPASITETSFSLLMAEAAS
# B3: ALEX1, prey clones from the human brain cDNA library in pACT2 (homodimer formation) (protein, not shown: large carriers)
# chain: MGRTREAGCVAAGVVIGAGACYCVYRLAWGRDENEKIWDEDEESTDTSEIGVETVKGAKTNAGAGSGAKLQGDSEVKPEVSLGLEDCPGVKEKAHSGSHSGGGLEAKAKALFNTLKEQASAKAGKGARVGTISGNRTLAPSLPCPGGRGGGCHPTRSGSRAGGRASGKSKGKARSKSTRAPATTWPVRRGKFNFPYKIDDILSAPDLQKVLNILERTNDPFIQEVALVTLGNNAAYSFNQNAIRELGGVPIIAKLIKTKDPIIREKTYNALNNLSVNAENQGKIKTYISQVCDDTMVCRLDSAVQMAGLRLLTNMTVTNHYQHLLSYSFPDFFALLFLGNHFTKIQIMKLIINFTENPAMTRELVSCKVPSELISLFNKEWDREILLNILTLFENINDNIKNEGLASSRKEFSRSSLFFLFKESGVCVKKIKALANHNDLVVKVKVLKVLTKL
# Target: Gal4-DB fused to full-length ALEX1, bait in pODB-80 (human)
# Test: yeast two-hybrid, growth on -Leu-Trp-His plate with 1 mM 3-AT
row,Molecule,binding
1,"JIP-1 clone of amino acid numbers 258 to 711, the smallest JIP-1 clone (19A3) (from UniProt Q9UQF2 258-711)",binds

# Target: Gal4-DB fused to full-length ALEX1, bait in pODB-80 (human)
# Test: yeast two-hybrid, growth of yeast carrying pODB-80-ALEX1
row,Molecule,binding
1,JIP-1 fragment comprising amino acid numbers 262 to 589 (from UniProt Q9UQF2 262-589),binds
2,JIP-1 fragment of amino acid numbers 374 to 711 (from UniProt Q9UQF2 374-711),binds

# Target: T1, Gal4-DBD-delta (1-27) ALEX1, bait lacking the N-terminal transmembrane domain (amino acid numbers 1 to 27) (human)
# Test: yeast two-hybrid screen with Gal4-DBD-delta (1-27) ALEX1 as bait; listed among those that passed all tests
row,Molecule,binding
1,B1,binds
2,B2,binds
3,B3,binds

# Target: Gal4-DB fused to full-length ALEX1, bait in pODB-80 (human)
# Test: yeast two-hybrid screen, full-length ALEX1 as bait
row,Molecule,binding
1,"JIP-1 clone of amino acid numbers 160 to 711, prey from the human brain cDNA library (from UniProt Q9UQF2 160-711)",binds
2,"JIP-1 clone of amino acid numbers 199 to 711, prey from the human brain cDNA library (from UniProt Q9UQF2 199-711)",binds
3,"JIP-1 clone of amino acid numbers 258 to 711, the smallest JIP-1 clone (19A3) (from UniProt Q9UQF2 258-711)",binds

# Target: T1, Gal4-DBD-delta (1-27) ALEX1, bait lacking the N-terminal transmembrane domain (amino acid numbers 1 to 27) (human)
# Test: yeast two-hybrid screen with Gal4-DBD-delta (1-27) ALEX1 as bait; listed among those that passed all tests
# Remark: another data set of the same source
row,Molecule,binding
1,"ATRX, prey clones from the human brain cDNA library in pACT2 (from UniProt P46100 1-2492)",binds
2,"CSA2 (RED protein), prey clones from the human brain cDNA library in pACT2 (from UniProt Q13123 1-557)",binds
3,"MSP58, prey clones from the human brain cDNA library in pACT2 (from UniProt Q96EZ8 1-462)",binds
4,"ZNF189, prey clones from the human brain cDNA library in pACT2 (from UniProt O75820 1-626)",binds
5,"p68 (RNA helicase/ATPase), prey clones from the human brain cDNA library in pACT2 (from UniProt P17844 1-614)",binds
6,"α-Actinin4, prey clones from the human brain cDNA library in pACT2 (from UniProt O43707 1-911)",binds
